No constants are given. Whether binding was seen depends on the method and setting. Binding seen in cells or lysates may run through a third protein. These calls come from enrichment with a bait or labelling near it, and not all partners need be listed.
B1: PPIL4 (protein, UniProt Q9CXG3 1-492)
chain: MAVLLETTLGDVVIDLYTEERPRACLNFLKLCKIKYYNYCLIHNVQRDFIIQTGDPTGTGRGGESIFGQLYGDQASFFEAEKVPRIKHKKKGTVSMVNNGSDQHGSQFLITTGENLDYLDGVHTVFGEVTEGMDIVKKINETFVDKDFVPYQDIRINHTVILDDPFDDPPDLLIPDRSPEPTKEQLDSGRIGADEEIDDFKGRSAEEVEEIKAEKEAKTQAILLEMVGDLPDADIKPPENVLFVCKLNPVTTDEDLEIIFSRFGPIRSCEVIRDWKTGESLCYAFIEFEKEEDCEKAFFKMDNVLIDDRRIHVDFSQSVAKVKWKGKGGKYTKSDFKEYEKEQDKPANLVLKEKVKPKQDAKYDLILDEQGEDSKSSHSHTSKKHKKKTRHCSEEKEDEEYMPIKNPNQDIYREMGFGHYEEEESCWEKQKNEKRDRRQNRSRSRSRERDGHYSNSHKPKYQTEPYERERSRKRDRSRSPKKSKAKEKSKYR
B2: DHX40 (protein, UniProt Q6PE54 1-779)
chain: MSRFPAVAGRAPRRQEEGERPIELQEERPSAVRIADREEKGCTSQEGGTTPTFPIQKQRKKLIQAVRDNSFLIVTGNTGSGKTTQLPKYLYEAGFSQHGMIGVTQPRKVAAISVAQRVAEEMKCTLGSKVGYQVRFDDCSSKETAIKYMTDGCLLKHILGDPNLSKFSVIILDEAHERTLTTDILFGLLKKLFQDKSPNRKEHLKVVVMSATMELAKLSAFFGNCPIFDIPGRLYPVREKFCNLIGPRDRENTAYIQAIVKVTMDIHLNEMAGDILVFLTGQFEIEKSCELLFQMAESVDYDYDVQDTTLDGLLILPCYGSMTTDQQRRIFLPPPPGIRKCVISTNISATSLTIDGIRYVVDGGFVKQLNHNPRLGLDILEVVPISKSEALQRSGRAGRTASGKCFRIYSKEFWSQCMPDHVIPEIKRTSLTSVVLTLKCLAIHDVIRFPYLDPPNERLILEALKQLYQCDAIDRSGHVTRLGLSMVEFPLPPHLTCAVIRAASLDCEDLLLPIAAMLSVENVFIRPVDPEYQKEAEQRHRELAAKAGGFNDFATLAVIFEQCKSSGAPASWCQKHWIHWRCLFSAFRVEAQLRELIRKLKQQSDFPRETFEGPKHEVLRRCLCAGYFKNVARRSVGRTFCTMDGRGSPVHIHPSSALHEQETKLEWIIFHEVLVTTKVYARIVCPIRYEWVRDLLPKLHELNAHDLSSVARREMREDARRKWTNKENVKQLKDGISKEVLKKMQRRNDDKSISDARARFLERKQQRIQDHSDTLKETG
B3: FBXO38 (protein, UniProt Q8BMI0 1-1194)
chain: MGPRKKSAKVCVMDSEVAEEMTADEEKDYMNQLSHEVLCHIFRYLPLQDIMCMECLSRKLKEAVTLYLRVVRVVDLCAGRWWEYMPSGFTDSSFLTLLKKMPDVEQLYGLHPRYLERRRVRGQEAFSIPGVLEALQACPNLVGVETSHLELVESIWTYMPHVHILGKFRNRNGAFPIPPENKLKIPIGAKIQTLHLVGVNVPEIPCIPMLRHLYMKWVRLTKPQPFKDFLCISLRTFVMRNCAGPTNSLKYVPLVTGLASARNLEHLEMVRVPFLGGLIQHVVEDSWRSGGFRNLHTIVLGACKNALEVDLGYLIITAARRLHEVRIQPSLTKDGVFSALKMAELEFPQFETLHLGYVDEFLLQSRMANADLVKYGLADVVENPGIITDIGMKAVNEVFSCIKYLAIYNCPHLHNPYNWISDHSRWMRLVDINLVRCHALKLDSFGQFVELLPSLEFISLDQMFREPPKGCARVGLSAGTGIGVSSALVSNQNSNNDNDNNAPNNNANLHDNNHHHPDDSDDDNDFRPDLQAGEAQFAADALNEMEDMVQEDGELVAESGNGMPAHNREVLPVDADEEQAGPSGLQRVVKPTPIADHDSESDDEEDSLELQEVWAPKNGTRRYSEREEKTGDSGQSRETAVSGKGKTPLRKRCNNSHQTGQAKPFPLEESSCEKGCQVTSEQIKADMKAARDVSEKKKSKDVYPSCSSSSSSTAASTAGNASSPSTASQSPDFARTVTSSGSSEPSPPEVDVSRQCVCSPGGSEDSEAMEEGDAESSVCPRCCCLRPQESQRRTGRCSDEERPSTSRACVVNGADGTRSAFSFRTLPQGGSSGPAHDERTNGSGCGATGEDRRGSSQPESCDVQSNEDYPRRPLTRARSRLSHVPLISESEVAKTKPCHAMKRKRTADKSTSTSDPVIEDDHVQVLVLKSKNLVGVTMTNCGITDLVLKDCPKMMFIHATRCRVLKHLKVENAPIVNRFDYAQCKKLNMDQVLDQILRMPPERNRIIYLRPMQQVDTLTLEQKLFSGPYPYHICIIHEFSNPPNVRNKVRIRNWMDTIANINQELIKYEFFLEATRTEEDLKKYPKYPWGREIYTLEGVVDGAPYSMISDFPWLRSLRTAEPNSFARYDFEDDEESTIYAPRRKGQLSADICMETIGEEISEMRQMKRGIFQRVVAIFIHYCDVNGEPVEDDYI
B4: PCGF6 (protein, UniProt Q99NA9 1-353)
chain: MDEAETDATENKRASEAKRASAMPPPPPPPPPISPPALIPAPAAGEEGPASLGQAGAAGCSRSRPPALEPERSLGRLRGRFEDYDEELEEEEEMEEEEEEEEEMSHFSLRLESGRADSEDEEERLINLVELTPYILCSICKGYLIDATTITECLHTFCKSCIVRHFYYSNRCPKCNIVVHQTQPLYNIRLDRQLQDIVYKLVINLEEREKKQMHDFYKERGLEVPKPAAPQPVPSSKGKTKKVLESVFRIPPELDMSLLLEFIGANEDTGHFKPLEKKFVRVSGEATIGHVEKFLRRKMGLDPACQVDIICGDHLLERYQTLREIRRAIGDTAMQDGLLVLHYGLVVSPLKIT
B5: MARCH7 (protein, UniProt Q9WV66 1-693)
chain: MESKPSRIPRRISVQPSGSLSTRMVSGNRGTSLNDSYHSRDSSFRLDSEYQSASASACASPCQPAWYSESEIPQGARARAQTQQRDHDSKRPKLSCTNCASTSAGRNGGSGLNTVSDSSWRHSQVPRSSSMVLGSFGTDLMRERRDLDRRRESSISNLMDYNHRSGDFTTSSYVQERVPSSYSQGARPKENAVSTLQLNSSSTNHQLPSDHQTVPSSRDSSRSSFRSHFSPRQSESFRNSSHPAFSYFSSRNETPTISNSERGSSQRPYRESSDNEGRRTTRRLLSRIASSMSSTFFSRRSSQDSLNTRSLSSENYISPRTLTSQSRNNGTSSSSDVSEGRAAEASQGFRFLRRRWGLSSLSQNHSSEPEAENFNQESEGRNSGPWLSSSLRNRCTPLFSRRRREGRDESSRMSTSDVPPRSHIFRRDSNEVVHLEAQGDSLGAAANRPQASGASSSAAAGGSTPELPQGGRNPGLTGILPGSLFRFAVPPALGSNLADNVMITVDIIPSGWNSTDGKNDKAKSAPSRDPEKLQKIKESLLLEDSDDEEEGDLCRICQMAAASSSNLLIEPCKCTGSLQYVHQECMKKWLQAKINSGSSLEAVTTCELCKEKLQLNLEDFDIHELHRAHANEQAEYEFISSGLYLVVLLHLCEQSFSDMMGNTIEPSTRVRFINLARTLQAHMEDLETSEDEF
B6: RNF169 (protein, UniProt E9Q7F2 1-694)
chain: MAAAGPSTRASSAAAAAALSRRGRRGRCDEMAAAKAGAPGPASSPALLVLRSAPRPEESGCTGCLETPGEVAALPCSHSRCRGCASRAAGPGCRRCRPRGSGWARRRARDDGQAAAELMGERARRGQPEPCRPRRDGGAAASGPRPEPEPLAEPEFIFRTPIKLSKPGELSEEYGCLRKLRGEKLQEEKDCDDQIHKLLQEDSEMGKRKADEQKKRDEAVVLKTSLEQCPARLSDSENEEPSRGQMMQTHRSAFVSKNSSCSLAFLAGKLNTKVQRSQSCSDTVQDRVRSRLRTAPPNRAKITTITPGSTPIIGVLLSTQNNRCLSAPDLTIEKRLPFGSLSSLASLHKPERSISPESNDSISEELNHFKPIVCSPCTPPKRLPDGRVLSPLIIKSTPRNLTRSLQKQTSYEASPRILKKWEQIFQERQIKKTLSKATLTSLAPEAGEEFPGSDTIHSSKERPSLAFNTRLSRVQVLSECAGPTSTALECFPSVNQTKVEQDCVRKRSREFSLETCHSSEHGGASSGPSLEREQCEESGSTVDATLVKTCISTVMKTAAVNSLLPKNDVLGGVLKTKQQLKTLNHFDLGNGILVNSLGEEPIPSLRRGRKRRCKTKHLEQNGVKKLRPPSSDMDLAPKDPGLLEVGRKLQQEEEDQQLALQSHRMFDSERRTMSRRKGSVDQYLLRSSSLAGAK
B7: DDX24 (protein, UniProt Q9ESV0 1-857)
chain: MKVKETNSKPKLASRGTFQRKGIKIVGKWKQVTIDPNLFADGQMDDLVCFEELTDYRLVKNPSRLFSSEETKKRKAQAVSEEEEEEEGQSSSPKKKIKLKKQRDAARAAEGAAAQNEYEVKASEPEAQGEVTACSDQKVGGAKSESLAQAAPRKKKNKGKKKLDTFQSTSPKLPKKSKKTWMAEVHDQKADVSAWRDLFVPKAVLRALSFLGFSAPTPIQALTLAPAIRDKLDILGAAETGSGKTLAFAIPMIHSVLQWHKMKAPPIPRSTGMPPREMRFGATAHLGSPCKDRTESGVLPEEARIETEAQPSDSGVQATPETSASASAQTLLVCDDDAGEGPSSLEEKPVPKQNEDGEEKFDAEQAGKLKQELCDQIAIYKVHPRRPLLGLVLTPTRELAIQVRQHIDAVAKFTGINTAILVGGMSTQKQQRMLNRHPEIVIATPGRLWELVKEKHPHLSNLRQLRCLVIDEADRMVEKGHFAELSQLLEMLNDSQYNPSRQTLVFSATLTLVHQAPARILHKKHVKKMDKTDKLDLLMQKVGMRGKPKVIDLTRNEGTVETLTETKIHCETDEKDLYLYYFLMQYPGRSLVFANSISCIKRLSGLLKVLDVMPLTLHACMHQKQRLRNLEQFARLQDCVLLATDVAARGLDIPKVQHVIHYQVPRTSEIYIHRSGRTARAASEGLSLMLIGPEDVINFKKIYKTLQKDEDIPLFPVQSKYMDVVKERIRLARQIEKAEYRNFQACLHNSWIEQAAAALEIELEEEMYKGGKADQQEERRRQKQMKMLKQELRHLLSQPLFQENLKTRYPTQSGRPPQPVLASRNIESALSCLSRQKRRRKKPKEPRAPPQPGSSTS
B8: CCDC55 (protein, UniProt Q5NCR9 1-542)
chain: MAIPGRQYGLILPKKTQPLHRVLQKPSVFGSDSDDDETSVSESLQREAAKKQAMKQTKLEIQKALAEDSTVYEYDSVYDEMQKKKEENNPKLLPGKDRKPKYIHNLLKAVEIRKKEQEKRMEKKIQREREMENGEFDDKEAFVTSAYKKKLEERAEEEEREKRAAALEAHLDVTKQKDLSGFYRHLLNQAVGEEAAPKSSFREARTVIKEEKLRGYPDETNSESRPPQQSCVLQRGAQEAEENPDADREFDDESSEDGEKRDHKVKSRGEDTGASMKHPKHHKNRAHSRSSSEERGLGTKHHSRGSQSRGHEHQDRQSRDQESCHKDRSHREEKSSHRHREASHKDHYWKKHEQEDKLKGREQEERQDREGKREKYSSREQERDRQRNDHDRYSEKEKKRKEKEEHTKARRERCEDSGKHREREKPEGHGQSSERHRDRRESSPRSRPKDDLDQERSSKARNTEKDKGEQGKPSHSETSLATKHRLAEERPEKGSEQERPPEAVSKFAKRSNEETVMSARDRYLARQMARINAKTYIEKEDD

By UniProt entry, the sequences of proteins in these tests, tags left out.
UniProt Q6A4J8: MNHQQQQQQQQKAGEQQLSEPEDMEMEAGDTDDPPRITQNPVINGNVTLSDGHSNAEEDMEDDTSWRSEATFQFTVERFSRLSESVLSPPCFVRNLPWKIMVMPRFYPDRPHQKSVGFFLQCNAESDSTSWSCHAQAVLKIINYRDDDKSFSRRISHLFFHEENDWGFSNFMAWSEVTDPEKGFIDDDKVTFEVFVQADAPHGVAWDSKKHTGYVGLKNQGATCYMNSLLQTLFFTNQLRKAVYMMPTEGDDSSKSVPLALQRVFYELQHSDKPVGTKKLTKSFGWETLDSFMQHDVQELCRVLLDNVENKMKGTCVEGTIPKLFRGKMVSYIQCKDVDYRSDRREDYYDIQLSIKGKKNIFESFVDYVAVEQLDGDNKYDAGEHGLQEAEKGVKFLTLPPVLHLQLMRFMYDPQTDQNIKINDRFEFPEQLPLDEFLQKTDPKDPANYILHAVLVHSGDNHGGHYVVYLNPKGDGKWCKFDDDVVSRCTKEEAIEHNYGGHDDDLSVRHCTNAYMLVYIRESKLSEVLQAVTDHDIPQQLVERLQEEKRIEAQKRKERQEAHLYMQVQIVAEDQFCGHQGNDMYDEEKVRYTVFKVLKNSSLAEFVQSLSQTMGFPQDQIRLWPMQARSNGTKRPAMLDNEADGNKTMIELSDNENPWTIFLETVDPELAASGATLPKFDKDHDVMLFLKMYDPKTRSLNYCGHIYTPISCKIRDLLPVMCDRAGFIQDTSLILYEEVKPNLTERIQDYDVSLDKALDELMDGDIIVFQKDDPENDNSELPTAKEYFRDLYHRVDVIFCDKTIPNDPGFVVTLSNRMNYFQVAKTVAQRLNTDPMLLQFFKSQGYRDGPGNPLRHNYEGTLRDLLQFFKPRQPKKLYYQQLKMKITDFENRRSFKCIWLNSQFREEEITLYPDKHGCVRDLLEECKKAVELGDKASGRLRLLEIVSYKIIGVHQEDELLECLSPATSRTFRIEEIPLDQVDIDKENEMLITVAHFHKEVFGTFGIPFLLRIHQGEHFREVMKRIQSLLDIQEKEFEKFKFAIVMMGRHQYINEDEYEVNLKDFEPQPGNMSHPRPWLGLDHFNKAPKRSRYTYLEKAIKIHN

Biological target: USP7 (mouse (endogenous in E14TG2a ES cells)) (UniProt Q6A4J8)
Assay: affinity purification with mass spectrometry; anti-USP7 immunoprecipitation of endogenous USP7 from WT mESC lysate, Usp7-KO ES cells as control, three independent experiments; nanoLC-MS/MS, spectral counts; enriched: fold change >4 and adjusted P <0.05

binding, binds:
B1
B2
B3
B4
B5
B6
B7
B8
